Source: patent publication US20120202233A1
No constants are given. Whether binding was seen depends on the method and setting. Binding seen in cells or lysates may run through a third protein. Some binding calls cover weakened binding; strength is not graded here. Tags and fused reporters may be left off the sequences shown.

The chains behind the UniProt entries cited, without tags or fusion partners. Where a name states a change or a piece, a line headed by the entry shows the natural chain unless it says otherwise.
UniProt P15056: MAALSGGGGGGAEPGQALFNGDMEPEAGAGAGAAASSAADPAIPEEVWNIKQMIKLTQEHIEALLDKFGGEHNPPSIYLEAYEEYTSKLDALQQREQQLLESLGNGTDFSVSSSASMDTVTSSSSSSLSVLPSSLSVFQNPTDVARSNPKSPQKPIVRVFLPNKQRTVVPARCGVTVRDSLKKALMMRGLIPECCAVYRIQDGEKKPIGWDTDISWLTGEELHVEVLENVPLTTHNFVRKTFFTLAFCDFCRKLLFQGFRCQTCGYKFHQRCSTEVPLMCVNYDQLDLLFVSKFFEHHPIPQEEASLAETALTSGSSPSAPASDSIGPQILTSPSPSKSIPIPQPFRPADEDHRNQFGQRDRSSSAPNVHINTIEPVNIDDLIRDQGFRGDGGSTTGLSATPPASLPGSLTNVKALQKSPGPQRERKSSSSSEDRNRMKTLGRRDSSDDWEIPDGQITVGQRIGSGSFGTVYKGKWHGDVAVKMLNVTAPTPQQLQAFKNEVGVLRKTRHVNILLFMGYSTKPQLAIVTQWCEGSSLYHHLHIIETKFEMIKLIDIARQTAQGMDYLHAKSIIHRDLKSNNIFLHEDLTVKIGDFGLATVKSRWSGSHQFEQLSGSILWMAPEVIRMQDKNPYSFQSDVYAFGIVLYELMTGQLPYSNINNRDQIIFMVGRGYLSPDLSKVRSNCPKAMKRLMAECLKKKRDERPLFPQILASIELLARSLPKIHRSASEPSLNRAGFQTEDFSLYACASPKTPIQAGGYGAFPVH

Biological target: BRAF (wild type) (Homo sapiens (Human)) (UniProt P15056)
Test: co-immunoprecipitation: FLAG-KSR IP, BRAF blot (FIG. 2G)

binding: binds
B1: A587F FLAG-KSR (enzyme, mouse, UniProt Q61097 1-873, looked up, not shown: small tags and cut ends)
chain: MDRAALRAAAMGEKKEGGGGGAAADGGAGAAVSRALQQCGQLQKLIDISIGSLRGLRTKCSVSNDLTQQEIRTLEAKLVKYICKQQQSKLSVTPSDRTAELNSYPRFSDWLYIFNVRPEVVQEIPQELTLDALLEMDEAKAKEMLRRWGASTEECSRLQQALTCLRKVTGLGGEHKMDSGWSSTDARDSSLGPPMDMLSSLGRAGASTQGPRSISVSALPASDSPVPGLSEGLSDSCIPLHTSGRLTPRALHSFITPPTTPQLRRHAKLKPPRTPPPPSRKVFQLLPSFPTLTRSKSHESQLGNRIDDVTPMKFELPHGSPQLVRRDIGLSVTHRFSTKSWLSQVCNVCQKSMIFGVKCKHCRLKCHNKCTKEAPACRITFLPLARLRRTESVPSDINNPVDRAAEPHFGTLPKALTKKEHPPAMNLDSSSNPSSTTSSTPSSPAPFLTSSNPSSATTPPNPSPGQRDSRFSFPDISACSQAAPLSSTADSTRLDDQPKTDVLGVHEAEAEEPEAGKSEAEDDEEDEVDDLPSSRRPWRGPISRKASQTSVYLQEWDIPFEQVELGEPIGQGRWGRVHRGRWHGEVFIRLLEMDGHNQDHLKLFKKEVMNYRQTRHENVVLFMGACMNPPHLAIITSFCKGRTLHSFVRDPKTSLDINKTRQIAQEIIKGMGYLHAKGIVHKDLKSKNVFYDNGKVVITDFGLFGISGVVREERRENQLKLSHDWLCYLAPEIVREMIPGRDEDQLPFSKAADVYAFGTVWYELQARDWPFKHQPAEALIWQIGSGEGVRRVLASVSLGKEVGEILSACWAFDLQERPSFSLLMDMLERLPKLNRRLSHPGHFWKSADINSSKVMPRFERFGLGTLESGNPKM
